This is an account of results in article PMC8608904.

Protein sequences, listed by entry. Tags and fused reporters are not part of them.
UniProt Q91YH6: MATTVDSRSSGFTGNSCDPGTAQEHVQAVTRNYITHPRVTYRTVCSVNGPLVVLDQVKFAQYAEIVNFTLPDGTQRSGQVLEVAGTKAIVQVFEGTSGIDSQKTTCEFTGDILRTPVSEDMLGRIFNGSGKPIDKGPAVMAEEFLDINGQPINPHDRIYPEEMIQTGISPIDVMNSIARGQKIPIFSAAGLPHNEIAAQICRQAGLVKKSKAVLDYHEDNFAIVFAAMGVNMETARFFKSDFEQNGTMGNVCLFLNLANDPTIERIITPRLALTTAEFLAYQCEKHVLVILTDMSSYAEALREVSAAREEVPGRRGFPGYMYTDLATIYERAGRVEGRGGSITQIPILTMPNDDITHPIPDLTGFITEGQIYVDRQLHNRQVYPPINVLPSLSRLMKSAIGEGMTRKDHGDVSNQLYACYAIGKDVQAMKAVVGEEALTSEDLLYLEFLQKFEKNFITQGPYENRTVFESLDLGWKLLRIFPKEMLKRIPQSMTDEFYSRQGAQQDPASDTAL

For assay [1], the target named is B1 subunit of V-ATPase (mouse (endogenous in kidney)) (UniProt Q91YH6). As to the kind of experiment: co-IP; anti-B1 or anti-B2 antibodies with mouse kidney lysate mixed with lysate of HEK293T cells overexpressing Tldc1 or Tldc2, protein A agarose; western blot with anti-Tldc1 or anti-HA. A general note: Immunoblotting shows a protein as a band on a membrane.
The target of assay [2] is B2 subunit of V-ATPase (mouse (endogenous in kidney)) (UniProt P62814). The description is as above.
Assay [3] deals with B1 subunit of V-ATPase (mouse (endogenous in kidney)) (UniProt Q91YH6). As to the kind of experiment: co-IP; anti-B1 or anti-B2 antibodies with 0.5 mg mouse kidney lysate, protein A agarose; western blot with anti-Tbc1d24, anti-B1 and anti-B2.
The target in assay [4] is T1, B2 subunit of V-ATPase (mouse (endogenous in kidney)), P62814.
T1 chain: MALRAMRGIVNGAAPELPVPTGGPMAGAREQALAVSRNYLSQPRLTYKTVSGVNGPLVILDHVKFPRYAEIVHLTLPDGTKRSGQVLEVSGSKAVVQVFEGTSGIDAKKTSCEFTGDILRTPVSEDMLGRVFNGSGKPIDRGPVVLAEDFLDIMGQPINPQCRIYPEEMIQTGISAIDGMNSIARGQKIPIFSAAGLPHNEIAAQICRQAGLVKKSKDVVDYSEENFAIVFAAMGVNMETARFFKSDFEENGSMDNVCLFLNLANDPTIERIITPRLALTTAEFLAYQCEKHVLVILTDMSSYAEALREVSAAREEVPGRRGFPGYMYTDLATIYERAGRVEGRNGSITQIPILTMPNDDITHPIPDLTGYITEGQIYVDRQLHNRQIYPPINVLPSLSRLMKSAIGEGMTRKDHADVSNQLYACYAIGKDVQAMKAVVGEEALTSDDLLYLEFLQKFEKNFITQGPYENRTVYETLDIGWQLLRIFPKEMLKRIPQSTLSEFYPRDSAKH
The description is as above. Conditions: remark: other sources report otherwise.

Results are given in words; binding and its absence hold for the method and conditions named. In cells and extracts the contact can be indirect. Some results given as binding are weak or reduced against the parent protein; the word gives no strength.

For the molecule “HA-tagged full-length mouse Tldc1, overexpressed in HEK293T cells (from UniProt Q8K0P3-1 1-455)”, the binding entry in assay [1] and in assay [2] was “binds” in each case.

B1: endogenous kidney Tbc1d24 (protein, UniProt Q3UUG6 1-561)
chain: MDPPGYNCFVDKDKMDASIQDLGPKELNCTELQELKQLARQGYWAQSHTLRGKVYQRLIRDIPCRTVTPDASVYSDIVGKIVGKHSSSSLPLPEFVDNTQVPTYCLNTRGEGAVRKILLCIANQFPDISFCPALPAVVALLLHYSIDEAECFEKACRILSCNDPTKKLIDQSFLAFESSCMTFGDLVNKYCQAAHKLMVAVSEDVLQVYSDWQRWLFGELPLNYFARVFDVFLVEGYKVLYRVALAILKFFHKVRAGQPLESDNVKQDIRMFVKDIAKTVSPEKLLEKAFAIRLFSRKEIQLLQMANEKALRQKGITVKQKSVSLSKRQFVHLAVHAENFHSEIVSVKEMRDIWSWIPERFALCQPLLLFSSLQHGYSLSRFYFQCEGHEPTLLLIKTTQKEVCGAYLSTDWSERTKFGGKLGFFGTGECFVFRLQPEVQRYEWVVIKHPELTKATSLKSSEAAGSSSLISHCSSDPADRLSPFLAARHFNLPSKTESMFMAGGNDCLIIGGGGGQALYVDGDLNRGRTGHCDTFNNQPLCSENFLIAAVEAWGFQDPDTE
Turning to B1, in assay [3], the binding result is “binds”.

B2: endogenous kidney Tbc1d24, Q3UUG6 1-561 (protein)
chain: B1 chain
As for B2, the binding entry in assay [4] was “no binding”.
